Assay results as given in PubChem BioAssay AID504847 (National Center for Advancing Translational Sciences (NCATS), 2011).
Out of some 400,000 compounds screened, about 3,700 (0.93%) were called active. Inconclusive means that the source gave no clear call. Such entries were picked first, then a sample of the others. Calls come from the whole dose curve; as a rule, active = well fitted inhibition curve with a large enough effect; inconclusive = small, poorly fitted or top-dose-only effect, or another doubt; inactive = no such curve, though single readings can be large or run the other way. A potency beside an inconclusive call is a rough fit, not a confirmed value.
% is set by controls: 0 for no effect and ±100 for the full control effect; potency is the fitted concentration of half-maximal effect.

The chains behind the UniProt entries cited, without tags or fusion partners.
UniProt P11473, whole entry, looked up: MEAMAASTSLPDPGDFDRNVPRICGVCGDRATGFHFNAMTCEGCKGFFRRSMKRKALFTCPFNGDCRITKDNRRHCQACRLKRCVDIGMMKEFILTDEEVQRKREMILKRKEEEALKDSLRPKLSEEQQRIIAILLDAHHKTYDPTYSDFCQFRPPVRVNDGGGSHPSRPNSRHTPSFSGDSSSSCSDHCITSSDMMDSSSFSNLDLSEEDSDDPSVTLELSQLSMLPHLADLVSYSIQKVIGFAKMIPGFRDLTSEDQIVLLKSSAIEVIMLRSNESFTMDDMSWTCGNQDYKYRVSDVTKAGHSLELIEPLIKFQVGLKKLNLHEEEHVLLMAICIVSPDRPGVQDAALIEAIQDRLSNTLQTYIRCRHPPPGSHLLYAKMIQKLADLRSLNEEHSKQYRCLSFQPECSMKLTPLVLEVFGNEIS

The compounds below were run against Vitamin D3 receptor (Homo sapiens) (UniProt P11473) (assay: Inhibitors of the vitamin D receptor (VDR): qHTS). Details: VDR-SRC2-3 peptide fluorescence polarization, 2 h; max response, negative = inhibition: active compounds read low.
In short: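 Reagent solutions, kept cold and dark, are dispensed first; compounds are then pinned in at 23 nl, plates briefly spun, and incubated 2 h at ambient temperature. Inhibition of VDR–SRC2-3 peptide binding is read by fluorescence polarization.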
In the case of `COc1ccc(-c2nc(-c3ccccc3)c(NC(C)(C)C)o2)cc1`, the Potency is reported as inconclusive: 79.4 µM [inhibitor, single point]. `CCCCCC(=O)O[C@]1(C(C)=O)CC[C@H]2[C@@H]3CCC4=CC(=O)CC[C@]4(C)[C@H]3CC[C@@]21C` was tested, and the Potency was inconclusive: 89.1 µM [inhibitor, partial curve, poor fit]. For `Nc1c(C(=O)N2CCCCC2)sc(=S)n1-c1ccccc1`, the Potency was inconclusive: 63.1 µM [inhibitor, partial curve, poor fit]. In the case of `Cc1ccc(Cn2nc(C)c(NC(=O)c3cc(-c4ccc5c(c4)OCO5)on3)c2C)cc1`, the max response, negative = inhibition is reported as inactive: -8.57%. In the case of `COCC(=O)N(Cc1cc2cc(C)ccc2[nH]c1=O)c1ccccc1`, the Potency is reported as inconclusive: 100 µM [inhibitor, single point]. With `COc1ccc(C(=O)N2CCC3(CCCN(Cc4ccc(C#N)cc4)C3)CC2)cc1` the Potency was inconclusive: 39.8 µM [inhibitor, partial curve, poor fit]. For `Cc1ccc(C(=O)CSC2=C(C#N)C(c3ccco3)C3=C(CC(C)(C)CC3=O)N2)cc1` (stereo unspecified), the max response, negative = inhibition was inactive: 29.1%. In the case of `C=CCn1c(SCc2nc3cc(C(F)(F)F)ccc3c(=O)[nH]2)nc2sc(CC)cc2c1=O`, the Potency is reported as inconclusive: 3.16 µM [inhibitor, partial curve, poor fit]. With `Cc1cc(C(=O)N2CCCC(N3CCN(c4ccc(F)cc4)CC3)C2)c(C)o1` (stereo unspecified) the Potency was inconclusive: 28.2 µM [inhibitor, partial curve, poor fit]. `Clc1ccc2c(c1)C(N1CCNCC1)Cc1ccccc1S2` (stereo unspecified) was tested, and the max response, negative = inhibition was inactive: -9.3%. For `CN(C)c1ccc(/C=C/c2nc3ccccc3c(=O)[nH]2)cc1`, the max response, negative = inhibition was inactive: -3.65%. With `O=C(Nc1ccccc1)N1CCc2ccccc2C1` the max response, negative = inhibition was inactive: 5.35%. With `c1nc2nc(Nc3ccc(N4CCOCC4)cc3)nc(NC3CCCCC3)c2[nH]1` the max response, negative = inhibition was inactive: 3.1%. `Cc1ccccc1-c1nc(-n2ccnc2)c2ccccc2n1` was tested, and the Potency was inconclusive: 50.1 µM [inhibitor, partial curve]. For `CCCCCCN1C=C/C(=C\C=C(C#N)C#N)c2ccccc21`, the Potency was inconclusive: 89.1 µM [inhibitor, single point]. With `Oc1ccc(/C=N/N2CCCCC2)c(O)c1O` the Potency was inconclusive: 56.2 µM [inhibitor, partial curve, poor fit]. `COc1ccc(OC)c(N)c1` was tested, and the Potency was inconclusive: 79.4 µM [inhibitor, single point]. In the case of `CCOc1ncccc1C(=O)Nc1cc(S(=O)(=O)N2CCCCC2)ccc1OC`, the max response, negative = inhibition is reported as inactive: 8.7%. With `Cc1nnc(SCC(=O)Nc2ccccc2C(=O)NC2CC2)s1` the Potency was inconclusive: 89.1 µM [inhibitor, partial curve, poor fit]. With `O=C(O)CCNc1ccc(NCCC(=O)O)c2c1C(=O)c1ccccc1C2=O` the Potency was active: 7.08 µM. `CCC(=O)c1ccc(OCC(=O)OCC(=O)N2CCc3ccccc3C2)cc1` was tested, and the Potency was inconclusive: 89.1 µM [inhibitor, single point]. `CC(=O)Nc1nonc1-c1nnc(SCc2ccc(Cl)cc2)n1C` was tested, and the max response, negative = inhibition was inactive: -3.37%. In the case of `CC1(C)C(=O)C=C[C@]2(C)C1CC(=O)[C@]1(C)C2CC[C@@]2(C)C(c3ccoc3)OC(=O)C3O[C@@]321` (stereo partly specified), the Potency is reported as active: 20 µM. With `Cc1cc(C)n2c(SCC(=O)Nc3ccc(F)cc3F)nnc2n1` the Potency was inconclusive: 89.1 µM [inhibitor, single point]. For `CC(c1ccccc1)n1cc(C(=O)NCc2ccncc2)nn1` (stereo unspecified), the Potency was inconclusive: 100 µM [inhibitor, single point]. For `COc1ccc(CCNC(=O)C(C)OC(=O)c2ccco2)cc1OC` (stereo unspecified), the max response, negative = inhibition was inactive: 7.81%. With `Cc1ccc(N=C2C(=O)Nc3ccc(Br)cc32)cc1` the Potency was inconclusive: 8.91 µM [inhibitor, full curve]. In the case of `CCN1CCN(c2ncnc3c2nnn3Cc2ccccc2)CC1`, the max response, negative = inhibition is reported as inactive: -20.8%. `COc1ccc(/C=C(/C(=O)c2cccs2)N2C=CC=CC2=C(C#N)C#N)cc1` was tested, and the Potency was inconclusive: 31.6 µM [inhibitor, single point]. `CCS(=O)(=O)NCc1cn2c(C)csc2n1` was tested, and the max response, negative = inhibition was inactive: -4.09%. `CC(=O)c1ccccc1NC(=O)CSCc1nc2sc(C)c(C)c2c(=O)[nH]1` was tested, and the max response, negative = inhibition was inactive: -21.5%. With `CCOC(=O)C1=C(C)C(c2ccc(OC)cc2)NC(=S)N1` (stereo unspecified) the Potency was active: 28.2 µM. In the case of `COC(=O)c1ccc(NC(=S)NC(=O)C2CCC2)cc1`, the Potency is reported as inconclusive: 100 µM [inhibitor, single point]. `CN(C)c1ccc(-c2nc(N3CCNCC3)c3ccccc3n2)cc1` was tested, and the Potency was inconclusive: 89.1 µM [inhibitor, partial curve, poor fit]. In the case of `COc1ccc(NC(=O)CC2C(=O)N(c3ccc(F)cc3)C(=O)N2Cc2ccc3c(c2)OCO3)cc1` (stereo unspecified), the Potency is reported as inconclusive: 70.8 µM [inhibitor, partial curve]. For `CC(C)Cc1nnc(NC(=O)c2cc(-c3ccccc3)nc3ccccc23)s1`, the Potency was inconclusive: 12.6 µM [inhibitor, partial curve, poor fit]. For `Cc1cccc(NC(=O)CNC(=O)COc2cc(F)ccc2[N+](=O)[O-])c1C`, the Potency was inconclusive: 39.8 µM [inhibitor, single point]. For `O=C(c1ccco1)N1C(=O)c2cccc3cccc1c23`, the max response, negative = inhibition was inactive: -5.06%. For `O=C(Nc1cccc(C(F)(F)F)c1)c1cc(Br)cc(Br)c1O`, the Potency was inconclusive: 44.7 µM [inhibitor, partial curve]. With `CN(C)c1ncc2nc(CCc3ccccc3)c(=O)n(C[C@H]3CCCO3)c2n1` the Potency was inconclusive: 89.1 µM [inhibitor, single point]. In the case of `O=C(/C=C/c1ccccc1)n1cnnc1SC/C=C/c1ccccc1`, the Potency is reported as active: 39.8 µM. `CC12CCC(C/C1=N\N=C1\NC(=O)/C(=C\c3ccc(Cl)cc3)S1)C2(C)C` (stereo unspecified) was tested, and the Potency was inconclusive: 100 µM [inhibitor, partial curve, poor fit]. `CCN(CC)C(=O)/C(C#N)=C/c1cc(O)c(O)c([N+](=O)[O-])c1` was tested, and the Potency was inconclusive: 50.1 µM [inhibitor, partial curve, poor fit]. `O=C(/C=C/c1ccc2c(c1)OCO2)Nc1c(C(=O)O)[nH]c2ccccc12` was tested, and the Potency was inconclusive: 79.4 µM [inhibitor, partial curve, poor fit]. For `C/C(=N/OC(=O)c1ccc(C)cc1)c1cccs1`, the max response, negative = inhibition was inactive: -0.343%. In the case of `CC(C)c1ccc(NC(=O)c2snc3ccc(Cl)cc23)cc1`, the max response, negative = inhibition is reported as inactive: -22%. In the case of `FC(F)(F)c1ccccc1-c1nccc(NCCN2CCOCC2)n1`, the Potency is reported as inconclusive: 50.1 µM [inhibitor, partial curve]. In the case of `COc1ccc(Cl)cc1N(CC(=O)Nc1ccccc1C(=O)N1CCOCC1)S(C)(=O)=O`, the Potency is reported as inconclusive: 35.5 µM [inhibitor, partial curve, poor fit]. For `CC(=O)C(=Nc1ccccc1Cl)NNc1ccc(Cl)cc1`, the Potency was active: 44.7 µM. In the case of `CC1CCCCC1NC(=O)/C(C#N)=C/c1ccccc1F` (stereo unspecified), the Potency is reported as inconclusive: 14.1 µM [inhibitor, full curve, poor fit]. `CCCCc1nc2cc(C(=O)N3CCCCC3C(=O)OC)ccc2o1` (stereo unspecified) was tested, and the Potency was inconclusive: 39.8 µM [inhibitor, single point]. For `CC(C)NC(=O)CSc1ccccc1C(=O)NNC(=O)Cn1ccc(C(F)(F)F)n1`, the Potency was inconclusive: 70.8 µM [inhibitor, partial curve]. With `CCc1ccc(NC(=O)Nc2ccc3c(c2)N(C)C(=O)CS3)cc1` the Potency was inconclusive: 79.4 µM [inhibitor, partial curve]. In the case of `Nc1n[nH]c(=S)n1/N=C1/C(=O)Nc2ccccc21`, the Potency is reported as inconclusive: 56.2 µM [inhibitor, partial curve, poor fit]. For `COc1ccc(C)cc1Nc1nc(N)c2ccccc2n1`, the Potency was inconclusive: 79.4 µM [inhibitor, partial curve, poor fit]. For `OCCNc1ncnc2oc(-c3ccco3)c(-c3ccco3)c12`, the Potency was inconclusive: 79.4 µM [inhibitor, single point]. With `Cc1cccc(NC(=O)c2cc(S(=O)(=O)N3CCc4ccccc43)ccc2F)c1C` the max response, negative = inhibition was inactive: 2.07%. In the case of `CCc1c(C(=O)NNC(=S)NCCc2ccccc2)csc1C`, the max response, negative = inhibition is reported as inactive: -6.93%. With `CC(C)CS(=O)(=O)c1oc(-c2ccc(F)cc2)nc1S(=O)(=O)c1ccccc1` the Potency was inconclusive: 15.8 µM [inhibitor, partial curve, poor fit]. With `C=CCn1c(=S)[nH]c2ccc(Br)cc2c1=O` the Potency was inconclusive: 28.2 µM [inhibitor, partial curve, poor fit]. In the case of `Cc1nn(Cc2ccccc2)c(C)c1CNC(=O)c1ccc(F)c(S(=O)(=O)N2CCOCC2)c1`, the Potency is reported as inconclusive: 79.4 µM [inhibitor, partial curve, poor fit]. With `CCOC(=O)N1CCc2[nH]c3ccc(C)cc3c2C1` the Potency was inconclusive: 89.1 µM [inhibitor, single point]. `Cc1cc(NC(=O)CSc2nnc(C3COc4ccccc4O3)n2N)no1` (stereo unspecified) was tested, and the Potency was inconclusive: 28.2 µM [inhibitor, partial curve, poor fit]. In the case of `Cc1c(OCC(=O)N2CCC(C(=O)O)CC2)ccc2c3c(c(=O)oc12)CCC3`, the Potency is reported as inconclusive: 3.16 µM [inhibitor, full curve, poor fit]. In the case of `Cc1ccc(Cl)cc1NC(=O)C(C)n1nnc2sc3c(c2c1=O)CCCC3` (stereo unspecified), the max response, negative = inhibition is reported as inactive: 17.5%. In the case of `Cc1nc2cnc(N3CCNCC3)nc2n(Cc2ccc(F)cc2)c1=O`, the Potency is reported as inconclusive: 39.8 µM [inhibitor, partial curve].
